Measurements taken from PMC9861516.

Key:
[1] = system: T1, OmpR (Acidithiobacillus caldus MTH-04); assay: ITC; settings: ITC: TE buffer (100 mM Tris-HCl, 50 mM EDTA, pH 8.0), 30 C, 24 uM OmpR, 2 uM dsDNA; recombinant protein; residues 1-240; protein details: His tag (pET-28a, BamHI/HindIII, HisTrap purified); probe letters rebuilt from the primers and the genome
T1 sequence (looked up): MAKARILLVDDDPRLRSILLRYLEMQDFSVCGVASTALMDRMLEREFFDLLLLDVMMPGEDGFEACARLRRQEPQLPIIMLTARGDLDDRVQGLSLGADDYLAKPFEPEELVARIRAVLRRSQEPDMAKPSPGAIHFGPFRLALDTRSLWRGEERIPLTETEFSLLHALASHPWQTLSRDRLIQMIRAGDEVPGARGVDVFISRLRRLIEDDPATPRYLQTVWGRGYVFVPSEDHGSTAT

[2] = system: T1, OmpR (Acidithiobacillus caldus MTH-04); assay: EMSA; settings: recombinant protein; residues 1-240; protein details: His tag (pET-28a, BamHI/HindIII, HisTrap purified); probe letters rebuilt from the primers and the genome

Row | Sequence | binding result [1] | binding result [2]
1 | AGCGCCGATTGTGTACAGAATGAACAGTGGCGAGTCTGCTCGGCAACCCGGACATGGGATGGGAATCGGGTTGATGATTTGTCATCGCATCATGGCATTGCACAAGGGCTCTTTGCATTTCACATCAGAGGATGGGCTGGCGGCAACCATTTGCCTTCCGAGAGTACAAGATGGAGTAACATCGGCACAGAGACAGGAATTCAACGCACGTAAATTGTAACACCTGTTACACCTGTTACAACTTGTTACATAAGCTAAAACTTATATGCAATTGTCTCCTATGGGCCCCGAGTATACTATCCGAAGCGCGGCGTAGTTATGCCCCTAGACAACGTATTAGCGATTCGGAGATTATATATC (double strand) [T360 (tetH promoter fragment)] | binds | binds
2 | CGCAATATTCTGCGGGCGGTCTATGAAGCCGAGCGGCAGAACGAGATTCAGATCGTCGCCATCAACGATCTCGGCAGCCCGGAGACCAATGCCCATCTGACCCAGTACGACTCGGTACACGGCCGCTTTCCCTTCCCCGTCAGCGTCGAGGGGCAGGAGATGTTGGTGGGCAAGGATCGCGTGCGGGTTCTGGCGGAGCGGGATCCGAGCAAGCTGCCCTGGGGTGACCTGGGGGTGGACGTGGTGCTGGAGTGCACCGGCATCTTCACCACCCGCGAAAAGGCGTCGCTGCACATCCAGGGTGGCGCCAAGAAGGTCCTGATCTCCGCCCCGGCCAAGGATCCGGTGGACCTTACCGTA (double strand) [G360 (gapdH gene fragment)] | no binding | no binding

No signal at the amounts used counts as a negative. Tags and fusion partners may be left off the protein sequences shown.
